Measured values reported in PubChem BioAssay AID540276 (National Center for Advancing Translational Sciences (NCATS), 2011).
The whole screen tested about 300,000 compounds, of which about 5,400 (1.8%) were called active. Inconclusive means that the source gave no clear call. Such entries were picked first, then a sample of the others. The call rests on the fitted dose curve; tested in HEK293 cells. Where the call is inconclusive, the potency comes from a doubtful curve fit.

experiment: qHTS for inhibitors of binding or entry into cells for Marburg Virus; conditions: Marburg virus pseudotyped entry inhibition, cell reporter; activity change, negative = inhibition: at 37.8 µM (top of the series) unless noted
On the % scale 0 is the no-effect control and ±100 the full control effect; potency means the concentration at half of the fitted maximal effect.

Row | SMILES | activity change, negative = inhibition | Potency
1 | Cc1cc(C(=O)COc2ccccc2C(N)=O)c(C)n1C | inactive: -3.92% [at 46.1 µM] | –
2 | COc1cc2c(cc1O)CC[C@@H]1[C@@H]2CC[C@]2(C)[C@@H](O)CC[C@@H]12 | inactive: -14.3% | –
3 | CCOC(=O)C1CCN(C2CCN(Cc3nc(-c4ccccc4)no3)CC2)CC1 | inactive: -20.5% [at 46.1 µM] | –
4 | CC1=C(C(=O)Nc2ccccc2)C(CC(C)C)n2nc(SCc3ccccc3C)nc2N1 (centres undefined) | inactive: -12.6% [at 46.1 µM] | –
5 | O=C(c1cc2c(s1)-c1ccccc1OC2)N1CCN(c2ccccc2)CC1 | inactive: 8.42% [at 46.1 µM] | –
6 | Cc1ccc(-n2nc(C)c(NC(=O)CCl)c2C)cc1C | – | inconclusive: 13 µM [inhibitor, partial curve]
7 | CC(C)c1cccc(C(C)C)c1NC(=O)CCl | – | inconclusive: 4.47 µM [inhibitor, full curve, poor fit]
8 | O=C(O)Cc1ccc(NC(=O)Nc2cccc3ccccc23)cc1 | – | inconclusive: 6.31 µM [inhibitor, single point]
9 | COc1ccc(N(CC(=O)Nc2c(C)n(C)n(-c3ccccc3)c2=O)S(=O)(=O)c2ccccc2)cc1OC | – | inconclusive: 6.31 µM [activator, partial curve, poor fit]
10 | O=C(NCc1ccccc1)c1onc(CSc2ccc(F)cc2)c1C(=O)NCc1ccccc1 | inactive: 0.095% | –
11 | O=C(c1ccc(Cl)c(S(=O)(=O)N2CCOCC2)c1)N(Cc1nnc(-c2ccccc2Cl)o1)C1CC1 | – | inconclusive: 12.6 µM [inhibitor, partial curve]
12 | O=C1CSC(c2cn(-c3ccccc3)nc2-c2cccs2)N1CC1CCCO1 (centres undefined) | – | inconclusive: 22.4 µM [inhibitor, single point]
13 | CCCN(CCC)C(=O)NC1CC(=O)N(c2ccc(OC)cc2)C1 (centres undefined) | – | inconclusive: 35.5 µM [activator, single point]
14 | Cc1ccc(NC(=O)C(NC2CCCC2)c2ccccc2)cc1Cl (centres undefined) | – | inconclusive: 14.1 µM [inhibitor, partial curve, poor fit]
15 | COc1ccc(C(=O)O/N=C(\N)c2ccccn2)cc1[N+](=O)[O-] | – | inconclusive: 15.8 µM [inhibitor, partial curve, poor fit]
16 | COc1cccc(OCC(O)CN2CCC(CN3C(=O)c4cccc5cccc(c45)C3=O)CC2)c1 (centres undefined) | – | inconclusive: 22.4 µM [inhibitor, single point]
17 | NS(=O)(=O)c1ccc(NC(=O)CSc2nc3c(c(=O)[nH]2)CCCC3)cc1 | – | inconclusive: 35.5 µM [activator, single point]
18 | O=C(COC(=O)C1CC2C=CC1C2)Nc1ccc2c(c1)OC(F)(F)O2 (centres undefined) | – | inconclusive: 23.1 µM [activator, single point]
19 | Cc1ccc(OCCCSc2ncccn2)cc1C | – | inconclusive: 16.4 µM [activator, single point]
20 | CCCCCCn1nc(C(=O)N(CC(C)C)c2c(N)n(CCCC)c(=O)[nH]c2=O)c2ccccc2c1=O | inactive: -11.8% | –
21 | O=C(CSc1ccc(Br)cc1)NC1CCCCCC1 | inactive: 17.5% | –
22 | S=C(Nc1ccc(Cl)cc1)N1CCCCC1 | inactive: -3.65% | –
23 | Cc1ccc(NC(=O)N2CCC(c3ccccc3)C2)cc1C (centres undefined) | – | inconclusive: 11.2 µM [inhibitor, single point]

16 structures from above, ordered by heavy-atom count, falling.
Row | SMILES | activity change, negative = inhibition | Potency
9 | COc1ccc(N(CC(=O)Nc2c(C)n(C)n(-c3ccccc3)c2=O)S(=O)(=O)c2ccccc2)cc1OC | – | inconclusive: 6.31 µM [activator, partial curve, poor fit]
20 | CCCCCCn1nc(C(=O)N(CC(C)C)c2c(N)n(CCCC)c(=O)[nH]c2=O)c2ccccc2c1=O | inactive: -11.8% | –
11 | O=C(c1ccc(Cl)c(S(=O)(=O)N2CCOCC2)c1)N(Cc1nnc(-c2ccccc2Cl)o1)C1CC1 | – | inconclusive: 12.6 µM [inhibitor, partial curve]
10 | O=C(NCc1ccccc1)c1onc(CSc2ccc(F)cc2)c1C(=O)NCc1ccccc1 | inactive: 0.095% | –
4 | CC1=C(C(=O)Nc2ccccc2)C(CC(C)C)n2nc(SCc3ccccc3C)nc2N1 (centres undefined) | inactive: -12.6% [at 46.1 µM] | –
12 | O=C1CSC(c2cn(-c3ccccc3)nc2-c2cccs2)N1CC1CCCO1 (centres undefined) | – | inconclusive: 22.4 µM [inhibitor, single point]
5 | O=C(c1cc2c(s1)-c1ccccc1OC2)N1CCN(c2ccccc2)CC1 | inactive: 8.42% [at 46.1 µM] | –
17 | NS(=O)(=O)c1ccc(NC(=O)CSc2nc3c(c(=O)[nH]2)CCCC3)cc1 | – | inconclusive: 35.5 µM [activator, single point]
18 | O=C(COC(=O)C1CC2C=CC1C2)Nc1ccc2c(c1)OC(F)(F)O2 (centres undefined) | – | inconclusive: 23.1 µM [activator, single point]
8 | O=C(O)Cc1ccc(NC(=O)Nc2cccc3ccccc23)cc1 | – | inconclusive: 6.31 µM [inhibitor, single point]
15 | COc1ccc(C(=O)O/N=C(\N)c2ccccn2)cc1[N+](=O)[O-] | – | inconclusive: 15.8 µM [inhibitor, partial curve, poor fit]
2 | COc1cc2c(cc1O)CC[C@@H]1[C@@H]2CC[C@]2(C)[C@@H](O)CC[C@@H]12 | inactive: -14.3% | –
6 | Cc1ccc(-n2nc(C)c(NC(=O)CCl)c2C)cc1C | – | inconclusive: 13 µM [inhibitor, partial curve]
19 | Cc1ccc(OCCCSc2ncccn2)cc1C | – | inconclusive: 16.4 µM [activator, single point]
7 | CC(C)c1cccc(C(C)C)c1NC(=O)CCl | – | inconclusive: 4.47 µM [inhibitor, full curve, poor fit]
22 | S=C(Nc1ccc(Cl)cc1)N1CCCCC1 | inactive: -3.65% | –

Following part

Row | SMILES | activity change, negative = inhibition | Potency
24 | Cn1c(=O)n(C)c2cc([N+](=O)[O-])c(N3CCN(C(=O)c4cccc(F)c4)CC3)cc21 | inactive: -6.38% [at 46.1 µM] | –
25 | O=C1NC(=O)C(=CCc2ccccc2)C(=O)N1 | – | inconclusive: 0.316 µM [inhibitor, partial curve, poor fit]
26 | Cc1cc(C)cc(NC(=O)C2CCCN(C(=O)c3cnn(-c4ccccc4)c3-n3cccc3)C2)c1 (centres undefined) | – | inconclusive: 35.5 µM [inhibitor, partial curve, poor fit]
27 | CCN1CCn2c3c(c4cccc(C)c42)CCCC31 (centres undefined) | – | inconclusive: 35.5 µM [inhibitor, single point]
28 | COc1cc(OC)c(N(C)S(=O)(=O)c2cccc(C(=O)OCC(=O)N(C)C3CCCCC3)c2)cc1Cl | – | inconclusive: 11.2 µM [inhibitor, single point]
29 | O=C(N/N=C/c1c(O)ccc2ccccc12)c1cccnc1 | – | inconclusive: 1.78 µM [inhibitor, full curve, poor fit]
30 | CCOC(=O)CN1N=C(c2ccc(C)cc2)CCC1=O | – | inconclusive: 0.447 µM [inhibitor, single point]
31 | O=C(CNS(=O)(=O)c1ccccc1)OCC(=O)c1ccc(OC(=O)c2ccccc2)cc1 | inactive: 14.4% | –
32 | C/C(=N/OCC(=O)Nc1ccccc1)c1cccs1 | inactive: 25.5% [at 46.1 µM] | –
33 | CCCOc1ccc2oc(=O)c3c(c2c1)CCCN3C(=O)CN1CCc2ccccc2C1 | – | inconclusive: 14.1 µM [inhibitor, single point]
34 | Cc1ccc2c(C)nc(Nc3ncc4c(n3)CCCC4=O)nc2c1 | inactive: 2.1% | –
35 | Cc1ccc(C)c(OCC(=O)Nc2ccc3c(c2)OCO3)c1 | – | inconclusive: 0.891 µM [activator, full curve, poor fit]
36 | Cc1cc(Br)c(S(=O)(=O)NCc2ccncc2)cc1C | – | inconclusive: 1.41 µM [inhibitor, full curve]
37 | COc1cc(-c2nc3ccc(N4CCN(C)CC4)cc3[nH]2)cc(OC)c1OC | – | inconclusive: 14.1 µM [inhibitor, single point]
38 | COc1cc(O)c(C(CCN2CCCCC2)c2cc(OC)c(OC)c(OC)c2)c(OC)c1 (centres undefined) | inactive: 0% | –
39 | CCCOc1ccc(CNC(=O)Cn2ncn3c(cc4sc(CC)cc43)c2=O)cc1 | inactive: -4.64% [at 46.1 µM] | –
40 | O=C(O)c1ccc(NCCc2ccc(Cl)cc2)c([N+](=O)[O-])c1 | – | inconclusive: 0.562 µM [inhibitor, partial curve, poor fit]
41 | C=C(C)CNC(=S)N/N=C(\C)c1cccc(NC(C)=O)c1 | – | inconclusive: 35.5 µM [inhibitor, single point]
42 | Nc1ncnc(Oc2ccccc2F)c1[N+](=O)[O-] | – | inconclusive: 5.01 µM [inhibitor, full curve, poor fit]
43 | COCCCNC(=O)c1c(NC(=O)c2ccco2)n(Cc2ccccc2)c2nc3ccccc3nc12 | – | inconclusive: 12.6 µM [inhibitor, partial curve]
44 | CCOCCCNC(=O)C(Cc1ccccc1)NC(=O)c1ccco1 (centres undefined) | – | inconclusive: 25.9 µM [activator, single point]
45 | Oc1cnn(-c2ccccc2)c1 | – | inconclusive: 7.08 µM [activator, partial curve]
46 | O=S(=O)(c1ccc(NC(=S)N/N=C/c2ccc(Oc3ccccc3)cc2)cc1)N1CCOCC1 | inactive: -2.08% [at 46.1 µM] | –

Row | SMILES | activity change, negative = inhibition | Potency
47 | Cc1cc(C)cc(NC(=O)COc2coc(CN3CCc4ccccc4C3)cc2=O)c1 | – | inconclusive: 35.5 µM [inhibitor, single point]
48 | O=C1/C(=C/c2ccco2)Oc2c1ccc(O)c2CN1CCCCC1 | inactive: -10.4% | –
49 | Cc1nc(-c2ccccn2)nc(N2CCOCC2)c1Cl | inactive: 3.99% [at 46.1 µM] | –
50 | CCC(C)NC(=O)c1ccc(NS(=O)(=O)c2ccc3[nH]c(=O)[nH]c3c2)cc1 (centres undefined) | inactive: -8.96% | –
51 | CC(=O)Nc1ccc(Nc2cc(C)nc3c(-c4ccccc4)c(C)nn23)cc1 | – | inconclusive: 1.12 µM [activator, partial curve, poor fit]
52 | CNC(=O)c1cc(Nc2nnc(-c3ccc(C)c(S(N)(=O)=O)c3)c3ccccc23)ccc1OC | – | inconclusive: 0.447 µM [activator, single point]
53 | CCc1noc(C)c1C(=O)Nc1cccc(S(=O)(=O)N2CCCCCC2)c1 | inactive: 1.01% | –
54 | COc1ccc(Cc2noc(CN3CCN(c4ccc(Cl)cn4)CC3)n2)cc1OC | – | inconclusive: 1.12 µM [inhibitor, full curve, poor fit]
55 | CCN(CC)c1ccc(C(=O)Nn2cnc3ccccc3c2=O)cc1 | – | inconclusive: 3.55 µM [activator, single point]
56 | CCCc1cc(=O)oc2cc(C)cc(OC(C)C(=O)N[C@@H](Cc3c[nH]c4ccccc34)C(=O)O)c12 (some centres undefined) | inactive: -7.94% | –
57 | CCN(C(=O)c1coc(=O)c2ccccc12)c1ccccc1C | – | inconclusive: 11.2 µM [inhibitor, partial curve]
58 | COCCN1C(=NCCc2cccnc2)NC(c2ccccc2)C(C(=O)OC)=C1C (centres undefined) | inactive: 53.9% [at 14.2 µM] | –
59 | CC(=O)c1ccc(N2CCN(CC(O)COC(c3ccccc3)c3ccccc3C)CC2)cc1 (centres undefined) | – | inconclusive: 29.1 µM [inhibitor, single point]
60 | Cc1ccc(S(=O)(=O)N(CC(=O)N2CCN(c3ccc(F)cc3)CC2)C2CCCCC2)cc1 | – | inconclusive: 0.092 µM [inhibitor, full curve, poor fit]
61 | Cc1cc2sc3nc(=O)n(-c4ccccc4)c(=O)n3c2cc1C | – | inconclusive: 3.16 µM [activator, single point]
62 | O=C(Nc1ccccc1)Nc1ccc(C(=O)N2CCCC2)cc1 | – | inconclusive: 5.01 µM [inhibitor, full curve, poor fit]
63 | Cc1ccn2c(C(=O)N/N=C\c3cccs3)c(C)nc2c1 | inactive: 18.4% | –
64 | C/C(=N\NC(=O)CNc1cccc(C(F)(F)F)c1)c1cccs1 | inactive: -3.27% [at 46.1 µM] | –
65 | C/C(=N\NC(=O)c1ccn[nH]1)c1cn(C)nc1C | – | inconclusive: 0.708 µM [activator, full curve, poor fit]
66 | COc1ccc(OC)c(C2CC(c3c(-c4ccccc4)c4cc(Cl)ccc4[nH]c3=O)=NN2S(C)(=O)=O)c1 (centres undefined) | – | inconclusive: 5.62 µM [inhibitor, full curve]
67 | Cc1ccc(C(=O)c2cnc3cc4c(cc3c2S(=O)(=O)c2ccccc2)OCCO4)cc1 | – | active: 7.08 µM
68 | COc1ccc(CN(C)C(C)C(=O)Nc2ccc([N+](=O)[O-])cc2Cl)cc1OC (centres undefined) | – | inconclusive: 0.631 µM [inhibitor, full curve, poor fit]
69 | O=C(Nc1ccc(Cl)cc1C(=O)c1ccccc1)c1ccccc1 | inactive: -28.6% [at 46.1 µM] | –
